Reference: PubChem BioAssay AID2685 (National Center for Advancing Translational Sciences (NCATS), 2010)
Out of some 320,000 compounds screened, about 2,100 (0.66%) were called active. Inconclusive means that the source gave no clear call. Such entries were picked first, then a sample of the others. The call rests on the fitted dose curve; in most records, active means well fitted inhibition curve with a large enough effect in the signal ratio, with a control signal flat (not every such curve was filed as active); inconclusive means small, poorly fitted or top-dose-only effect, or effect the other way, or a change in a side signal; inactive means flat fitted curve, though single readings scatter; the % refers to the signal ratio. A potency beside an inconclusive call is a rough fit, not a confirmed value.
On the % scale 0 is the no-effect control and ±100 the full control effect; potency means the concentration at half of the fitted maximal effect.

Test: qHTS Assay for Lipid Storage Modulators in Drosophila S3 Cells
Conditions: BODIPY lipid droplet fluorescence, 18-24 h, cells fed with added oleic acid; lipid storage change, negative = inhibition: at 46.1 µM (top of the series) unless noted
Procedure, shortened: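 Drosophila S3 cells loaded with oleic acid (400 uM, as added) and compounds at several concentrations; lipid droplets imaged by 488-nm laser-scanning cytometry, 500–530 nm intensity and object ratio to cell channel. Percent activity normalized to 20 uM Triacsin C.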
In the case of CC1(C)N=C(c2cccc(F)c2)C(=O)N1, the lipid storage change, negative = inhibition was inconclusive: 9.87%.
For COc1ccc(OC)c(NC(=O)c2cc(-c3cc(C)c(C)cc3O)n[nH]2)c1, the Potency was inconclusive: 29.1 µM [rising, single point].
With Cc1nnc(-c2ccc(Oc3ccc(Br)cc3)c([N+](=O)[O-])c2)o1 the lipid storage change, negative = inhibition was “inactive”.
For CCOC(=O)N1CCN(C(=O)CSc2nnc(-c3ccc(C(C)(C)C)cc3)o2)CC1, the Potency was inconclusive: 2.59 µM [falling, full curve].
For CN(CC1CCOCC1)C(=O)CC1C(=O)NCCN1Cc1cccc(C(F)(F)F)c1 (stereo unspecified), the lipid storage change, negative = inhibition was inconclusive: 5.1%.
With CC(=O)Nc1nonc1-n1nnc(C(=O)NCc2ccccc2)c1C the Potency was inconclusive: 0.731 µM [activator, partial curve].
With Cc1cccc(N2C(=O)CC(Sc3nc(-c4ccccc4)c4cc(Cl)ccc4n3)C2=O)c1 (stereo unspecified) the lipid storage change, negative = inhibition was inconclusive: 20.8%.
For Cc1c(N=C2N=C(NC(=O)NC(C)(C)C)c3ccccc32)c(=O)n(-c2ccccc2)n1C, the lipid storage change, negative = inhibition was inconclusive: 0.455%.
With O=C(c1ccc(CNS(=O)(=O)c2ccc(Br)cc2)cc1)N1CCCCC1 the lipid storage change, negative = inhibition was inconclusive: -38.6%.
In the case of Cc1ccc(C(=O)NC(=S)NCCCN2CCOCC2)cc1, the Potency was inconclusive: 4.61 µM [falling, full curve, poor fit].
With COc1ccc(CCNC(=O)CCn2c(SCC#N)nc3ccccc3c2=O)cc1OC the Potency was inconclusive: 0.58 µM [activator, full curve].
In the case of O=C(Nc1ccc2c(c1)S(=O)(=O)N=C1CCCCCN12)c1ccccc1Cl, the Potency was inconclusive: 0.731 µM [rising, full curve, poor fit].
For CCOC(=O)C1C(=O)OC2(CCCCC2)C1C(=O)OCC (stereo unspecified), the lipid storage change, negative = inhibition was inconclusive: 96%.
In the case of CC1=N/C(=C\c2ccc([N+](=O)[O-])cc2)C(=O)N1c1ccc(F)cc1F, the lipid storage change, negative = inhibition was inconclusive: -71.3%.
With O=C1CN(C(=O)COC(=O)CNC(=O)c2ccc(Cl)cc2)c2ccccc2N1 the lipid storage change, negative = inhibition was inconclusive: 2.42%.
In the case of O=C(O)C(=O)/C(=C\c1ccccc1)c1ccc2ccccc2n1, the lipid storage change, negative = inhibition was inconclusive: -0.562%.
In the case of Cc1ccc(C)c(S(=O)(=O)Nc2ccc(O)cc2)c1, the lipid storage change, negative = inhibition was inconclusive: -13.4%.
With COC(=O)c1onc(-c2c(OC)cc(OC)cc2OC)c1C(=O)OC the Potency was inconclusive: 8.2 µM [activator, partial curve].
In the case of COc1ccc(N(C(=O)c2cnccn2)C(C(=O)NC2CCCCC2)c2cc(OC)c(OC)c(OC)c2)cc1 (stereo unspecified), the Potency was inconclusive: 0.461 µM [falling, partial curve, poor fit].
For S=C(NCC1CCCO1)NC1CCCCC1 (stereo unspecified), the Potency was inconclusive: 1.64 µM [falling, partial curve].
In the case of Cn1nc(-c2ccccc2)c(C#N)c1Sc1cccc(Cl)c1, the Potency was inconclusive: 20.6 µM [activator, single point].
With Cc1cccc(NC(=S)N2CCN(C(=O)C3CCCO3)CC2)c1 (stereo unspecified) the lipid storage change, negative = inhibition was inconclusive: 11.3%.
With COc1ccc(C(O)(CCN2CCCCC2)C2CCCCC2)cc1 (stereo unspecified) the lipid storage change, negative = inhibition was inconclusive: -22%.
With O=C(NCCc1ccccc1)c1cccc2c1C(=O)N(C1CCCCC1)C2 the lipid storage change, negative = inhibition was inconclusive: 0.786%.
With CC(C)(C)c1ccc(S(=O)(=O)NCc2ccccn2)cc1 the lipid storage change, negative = inhibition was inconclusive: -76.1%.
With COC(=O)c1[nH]c2cc(OC)ccc2c1NC(=O)c1c(F)cccc1F the lipid storage change, negative = inhibition was inconclusive: 10.9%.
With Cc1nnc(N/N=C/c2ccccc2C(F)(F)F)n1N the lipid storage change, negative = inhibition was inconclusive: -100%.
With CCOC(=O)c1ccccc1NC1c2ccccc2C(=O)N1C1CCN(C(=O)OCC)CC1 (stereo unspecified) the Potency was inconclusive: 3.26 µM [falling, single point].
For CC(C)C(NC(=O)c1c(F)cccc1F)C(=O)N1CCN(S(=O)(=O)/C=C/c2ccccc2)CC1 (stereo unspecified), the lipid storage change, negative = inhibition was inconclusive: -1.97%.
With CCC(=O)c1ccc(OCC(=O)OCC(=O)c2cc(C)n(C)c2C)cc1 the Potency was inconclusive: 29.1 µM [activator, single point].
For CCCCn1c(N)c(N(CCOC)C(=O)C2CC(=O)N(Cc3ccc(C)cc3)C2)c(=O)[nH]c1=O (stereo unspecified), the lipid storage change, negative = inhibition was inconclusive: 177%.
For O=C(OCc1nnc(-c2ccccc2)o1)C1CC(=O)N(CCc2ccccc2)C1 (stereo unspecified), the Potency was inconclusive: 0.326 µM [activator, single point].
In the case of CC(C)C[C@H](NC(=O)Nc1ccc2c(c1)OCCO2)C(=O)O, the Potency was inconclusive: 29.1 µM [falling, single point].
In the case of O=C(N/N=C/c1ccc([N+](=O)[O-])s1)c1ccccc1, the lipid storage change, negative = inhibition was “inactive”.
For O=S(=O)(Nc1ccccc1)c1cccc2nonc12, the Potency was inconclusive: 6.51 µM [activator, partial curve].
For CCCN=C(C)C1=C(O)c2ccccc2C1=O, the lipid storage change, negative = inhibition was inconclusive: 19%.
For Cc1ccc(C(=O)NN(CCC(=O)NC(C)(C)C)C2=NS(=O)(=O)c3ccccc32)cc1, the lipid storage change, negative = inhibition was inconclusive: -11%.
With COCCNc1nc2c(c(=O)n(Cc3cccc(Cl)c3)c(=O)n2C)n1C the lipid storage change, negative = inhibition was inconclusive: 16.7%.
With CC1(C)CC(=O)C=C(NCc2cccs2)C1 the Potency was inconclusive: 3.66 µM [falling, single point].
For O=C(N/N=C/c1cc(Br)cc([N+](=O)[O-])c1O)c1ccc(NC(=O)c2ccc(F)cc2)cc1, the lipid storage change, negative = inhibition was inconclusive: 20.2%.
With CCN1C(=O)/C(=C\N2CCCc3ccccc32)SC1=S the Potency was inconclusive: 18.4 µM [activator, single point].
For c1ccc2nc(-c3ccc4c(c3)OCO4)ccc2c1, the Potency was inconclusive: 2.91 µM [rising, single point].
For CC12CC(NC(=O)N1c1cccc(C(=O)N3CCN(c4ccccc4)CC3)c1)c1ccccc1O2 (stereo unspecified), the lipid storage change, negative = inhibition was inconclusive: 74.9%.
For Cc1ccc(NC(=O)c2ccc(Cl)nc2)cc1, the lipid storage change, negative = inhibition was inconclusive: 91.8%.
For Cc1cc(O)c(/C=N/Nc2ccc(F)cc2)c(=O)o1, the lipid storage change, negative = inhibition was inconclusive: 2.08%.
With COc1ccc(-c2nnc3sc(CCN4C(=O)c5ccccc5C4=O)nn23)cc1 the lipid storage change, negative = inhibition was inconclusive: 16.9%.
With Cc1ccccc1Nc1nnc(C)c(=O)[nH]1 the Potency was inconclusive: 6.51 µM [activator, single point].
With COc1ccc(OC)c(C(=O)COC(=O)CNC(=O)C2CCCCC2)c1 the lipid storage change, negative = inhibition was inconclusive: 36%.
In the case of O=C(CSc1nnc(-c2cccc(F)c2)o1)N1CCCC1, the lipid storage change, negative = inhibition was inconclusive: 41.1%.
In the case of O=C(COC(=O)c1ncc(Cl)c(Cl)c1Cl)NNC(=O)c1ccccc1, the lipid storage change, negative = inhibition was inconclusive: -21%.
For Brc1ccc2ncnc(Nc3ccc(N4CCOCC4)cc3)c2c1, the Potency was inconclusive: 0.731 µM [activator, single point].
In the case of CNc1nc(Cl)c(SC)c(NCc2cccc(OC)c2)n1, the lipid storage change, negative = inhibition was inconclusive: 11%.
For COc1ccc(CCN(C)CCC(=O)Nc2ccc(C)cc2)cc1OC, the lipid storage change, negative = inhibition was inconclusive: -51.5%.
With COc1ccc(-c2[nH]nc3oc(=O)cc(C)c23)cc1 the lipid storage change, negative = inhibition was inconclusive: 2.89%.
For Cc1cc(C(=O)NCC(=O)Nc2c(C)cccc2C)c(C)o1, the lipid storage change, negative = inhibition was inconclusive: -13.8%.
With CC1CC(=O)C(C2c3ccccc3CCN2C(=O)CCl)C(=O)C1 (stereo unspecified) the Potency was inconclusive: 6.51 µM [falling, single point].
In the case of Cc1cc(=O)[nH]c(SCC(=O)NC2CCCCC2)n1, the lipid storage change, negative = inhibition was inconclusive: 35.7%.
In the case of O=C(COC(=O)CNC(=O)c1ccc(Cl)cc1Cl)NCc1ccco1, the lipid storage change, negative = inhibition was inconclusive: 4.72%.
For CC(=O)Nc1ccc(/C=C(\C#N)C(=O)NC2CCCCC2)cc1, the Potency was active: 20.6 µM.
For Cc1cc(NC(=O)COc2ccc(F)c(Cl)c2)no1, the lipid storage change, negative = inhibition was inconclusive: 1.49%.
In the case of CCN1CCN(Cc2ccc(NC(=O)c3cc(NC(=O)C4=NN(c5ccccc5)C(=O)C4)cc(OC)c3)cc2C(F)(F)F)CC1, the Potency was inconclusive: 18.4 µM [rising, partial curve].
In the case of COc1ccc(-c2cc(=Nc3ccc(C)cc3)c3ccccc3o2)cc1, the lipid storage change, negative = inhibition was inconclusive: -22.6%.
For O=c1cnc2ccccc2n1Cc1ccc(Br)cc1, the Potency was inconclusive: 20.6 µM [activator, partial curve, poor fit].
For Cc1nc(-c2nc(CC(=O)NNC(=O)c3ccc(Cl)cc3)cs2)cs1, the lipid storage change, negative = inhibition was inconclusive: 0.463%.
For Cc1cccc(NC(=O)CCN2CCN(C/C=C/c3ccccc3)CC2)c1, the Potency was inconclusive: 6.51 µM [falling, single point].
In the case of Cc1cc(NC(=O)/C=C/c2ccc(Cl)cc2)no1, the lipid storage change, negative = inhibition was inconclusive: 18.5%.
With CCOc1cc(/C=N/NC(=O)c2cc(-c3cccnc3)nc3ccccc23)ccc1O the lipid storage change, negative = inhibition was inconclusive: 9.45%.
For COC(=O)/C(=N/Nc1cccc(C)c1)N1CCCc2ccccc21, the lipid storage change, negative = inhibition was inconclusive: -3.69%.
In the case of Nc1nnc(CCc2ccccc2)s1, the lipid storage change, negative = inhibition was inconclusive: 15.3%.
With O=S(=O)(Nc1cccc(S(=O)(=O)N2CCCC2)c1)c1ccc(F)cc1 the Potency was inconclusive: 3.26 µM [activator, partial curve].
With Cc1onc(-c2ccccc2)c1C(=O)NCCCc1ccccc1 the Potency was inconclusive: 2.06 µM [activator, single point].
In the case of N#Cc1ccc(C(=O)OCC(=O)Nc2ccc(S(N)(=O)=O)cc2)cc1, the lipid storage change, negative = inhibition was inconclusive: -25.3%.
For CCCCN1C=CC(=C2N=c3cccc([N+](=O)[O-])c3=N2)C=C1, the Potency was inconclusive: 0.103 µM [activator, full curve, poor fit].
With CSCCC(NC(=O)c1ccccc1Cl)C(=O)NNC(=O)c1csc(N2CCOCC2)n1 (stereo unspecified) the lipid storage change, negative = inhibition was inconclusive: 11.6%.
In the case of O=C(COc1ccc(Br)cc1)NCCCNC(=O)c1cccnc1, the lipid storage change, negative = inhibition was inconclusive: 19%.
For O=C(Nc1ccccc1Oc1ccccc1)C1CC1, the Potency was inconclusive: 0.184 µM [falling, full curve, poor fit].
